Here are results for 24 compounds from PubChem BioAssay AID248 (DTP/NCI, 2004).

The list does not hold the whole screen: it gathers tests that were run many times, whatever their T/C, doses with no T/C, and many T/C values between a quarter and a half above the control. Further doses and runs are listed elsewhere. T/C: endpoint of the treated group in % of that of the vehicle group. Some doses have a count of surviving animals in place of a T/C: the source files T/C as zero there, which appears to mark a toxic dose or a test without result, not a measured value. Some doses without a T/C left all or most animals alive at the check, yet need not have been tolerated: survival well below the control is almost never listed, so the zero probably covers shortened survival too. Counts of survivors are from the toxicity check (mostly the fifth day) where no day follows; animals may have died later. Schedules are NCI's codes, taken here to give the interval after Q, in days (D) or hours (H), and the number of doses after X. Some schedules carry Z or #; the key to these is not given. For survival time, the PubChem record calls one and a half times the control and up active, and a quarter to a half above the control has no call in these data; cut-offs in other NCI protocols can differ. Some T/C values are followed by the survivors on the day toxicity was checked, most often the fifth; where none is given, no animal had died by that day.

For this assay, the system named is L1210 leukemia ip in BDF1 mice, survival T/C. Kind of assay: NCI In Vivo Anticancer Drug Screen. Data for tumor model L1210 Leukemia (intraperitoneal) in B6D2F1 (BDF1) mice. The conditions noted are these: higher T/C = longer survival.
[1] abbreviates: T/C endpoint: mean survival time, dose: 400.0 mg/kg/injection, schedule: Q04DX003 (ip), vehicle: saline.
Setting [2] is: T/C endpoint: mean survival time, dose: 200.0 mg/kg/injection, schedule: Q01DX009 (ip), vehicle: saline with Tween-80.
Where [3] appears, read: T/C endpoint: mean survival time, dose: 75.0 mg/kg/injection, schedule: Q01DX001 (ip), vehicle: saline.
[4] abbreviates: T/C endpoint: mean survival time, dose: 150.0 mg/kg/injection, schedule: Q01DX001 (ip), vehicle: saline.
Setting [5] is: T/C endpoint: mean survival time, dose: 300.0 mg/kg/injection, schedule: Q01DX001 (ip), vehicle: saline.
Where [6] appears, read: T/C endpoint: mean survival time, dose: 100.0 mg/kg/injection, schedule: Q01DX001 (ip), vehicle: saline.
[7] abbreviates: T/C endpoint: mean survival time, dose: 200.0 mg/kg/injection, schedule: Q01DX001 (ip), vehicle: saline.
Setting [8] is: T/C endpoint: mean survival time, dose: 400.0 mg/kg/injection, schedule: Q01DX001 (ip), vehicle: saline.

As for `NCC(c1ccccc1)c1ccccc1`, the survivor count reads like this: (T/C endpoint: mean survival time, dose: 75.0 mg/kg/injection, schedule: Q01DX009 (ip), vehicle: saline) 4 of 6; (T/C endpoint: mean survival time, dose: 100.0 mg/kg/injection, schedule: Q04DX003 (ip), vehicle: saline) 2 of 6; (T/C endpoint: mean survival time, dose: 115.0 mg/kg/injection, schedule: Q01DX009 (ip), vehicle: saline) 0 of 6; (T/C endpoint: mean survival time, dose: 170.0 mg/kg/injection, schedule: Q01DX009 (ip), vehicle: saline) 0 of 6; (T/C endpoint: mean survival time, dose: 200.0 mg/kg/injection, schedule: Q04DX003 (ip), vehicle: saline) 0 of 6; under setting [1], 0 of 6.
On to `CC/C(C#N)=C(\C)C1CC1`, for which the survivor count (T/C endpoint: mean survival time, dose: 75.0 mg/kg/injection, schedule: Q01DX001 (ip), vehicle: other) is listed as 0 of 6; the survivor count (T/C endpoint: mean survival time, dose: 150.0 mg/kg/injection, schedule: Q01DX001 (ip), vehicle: other) is 0 of 6; the survivor count (T/C endpoint: mean survival time, dose: 300.0 mg/kg/injection, schedule: Q01DX001 (ip), vehicle: other) is listed as 0 of 6.
For `OCCOc1c(Cl)cc(Cl)cc1Cl`, the survivor count under setting [2] was 6 of 6.
`Cc1ccc(S(=O)(=O)C[n+]2cc(C)cc(C)c2)cc1`: the survivor count under setting [1] is on record as 6 of 6.
For the compound `CN(C)c1ccc(/C=N/NC=O)c(Cl)c1`, the survivor count by setting is: under setting [3], 0 of 6; under setting [4], 0 of 6; under setting [5], 0 of 6.
For `CC(=O)N(C)N=O`, the survivor count reads like this: (T/C endpoint: mean survival time, dose: 50.0 mg/kg/injection, schedule: Q01DX001 (ip), vehicle: saline) 1 of 6; under setting [6], 0 of 6; under setting [7], 0 of 6; under setting [5], 0 of 6; under setting [8], 0 of 6; (T/C endpoint: mean survival time, dose: 500.0 mg/kg/injection, schedule: Q01DX001 (ip), vehicle: saline) 0 of 6. The survivor count runs as follows: (T/C endpoint: mean survival time, dose: 600.0 mg/kg/injection, schedule: Q01DX001 (ip), vehicle: saline) 0 of 6; (T/C endpoint: mean survival time, dose: 800.0 mg/kg/injection, schedule: Q01DX001 (ip), vehicle: saline) 1 of 6; (T/C endpoint: mean survival time, dose: 1000.0 mg/kg/injection, schedule: Q01DX001 (ip), vehicle: saline) 0 of 6.
For `O=[N+]([O-])c1ccccc1N=P(c1ccccc1)(c1ccccc1)c1ccccc1`, the survivor count is, setting by setting: (T/C endpoint: mean survival time, dose: 200.0 mg/kg/injection, schedule: Q01DX009 (ip), vehicle: DMSO) 2 of 6; (T/C endpoint: mean survival time, dose: 400.0 mg/kg/injection, schedule: Q04DX003 (ip), vehicle: DMSO) 1 of 6.
Regarding `C#CC(OC(=O)NC(CCSC)C(=O)OC)(c1ccccc1)c1ccccc1` (stereo not given), for the setting “T/C endpoint: mean survival time, dose: 400.0 mg/kg/injection, schedule: Q01DX001 (ip), vehicle: saline with Tween-80”, the survivor count was 2 of 3.
Take `CC(=O)Nc1ccc2c(c1)Cc1cc(N=Cc3ccccn3)ccc1-2`: the survivor count (T/C endpoint: mean survival time, dose: 200.0 mg/kg/injection, schedule: Q04DX003 (ip), vehicle: Klucel (hydroxypropylcellulose) (HPC)) is on record as 6 of 6.
Regarding `C=CCCCCCCCCC(=O)NCCCN1CCOCC1`, the survivor count under setting [2] is 0 of 6.
Turning to `O=C1NC(CCl)(CCl)CO1`, the survivor count reads like this: (T/C endpoint: mean survival time, dose: 4.0 mg/kg/injection, schedule: Q01DX001 (ip), vehicle: saline) 3 of 6; (T/C endpoint: mean survival time, dose: 8.0 mg/kg/injection, schedule: Q01DX001 (ip), vehicle: saline) 0 of 6.
Turning to `Nc1cc(S(=O)(=O)F)cc(Cl)c1O`, the survivor count (T/C endpoint: mean survival time, dose: 400.0 mg/kg/injection, schedule: Q01DX009 (ip), vehicle: Klucel (hydroxypropylcellulose) (HPC)) is on record as 0 of 6.
Take `Clc1ncnc2c1ncn2C1CCCO1` (stereo not given): under “T/C endpoint: mean survival time, dose: 600.0 mg/kg/injection, schedule: Q01DX009 (ip), vehicle: saline”, the T/C is 146 % of control [5 of 6 alive].
On to `COC(C#N)C(=N)CC#N` (stereo not given), for which the survivor count was 0 of 6 (T/C endpoint: mean survival time, dose: 38.0 mg/kg/injection, schedule: Q01DX001 (ip), vehicle: saline); 0 of 6 under setting [3]; 0 of 6 under setting [4]; 0 of 6 under setting [5].
As to `CCOC(=O)Nc1cc(NCc2ccccc2)c(N)c(N)n1`, the survivor count under setting [8] is given as 1 of 6.
With `COc1cc2c(cc1OC)C(CCN1C(=O)CCC1=O)NCC2` (stereo not given), the survivor count (T/C endpoint: mean survival time, dose: 400.0 mg/kg/injection, schedule: Q01DX009 (ip), vehicle: saline with Tween-80) is recorded as 3 of 6.
Regarding `O=C(O)C(=O)c1c(O)n(-c2ccccc2)c2ccccc12`, the survivor count (T/C endpoint: mean survival time, dose: 200.0 mg/kg/injection, schedule: Q01DX001 (ip), vehicle: Klucel (hydroxypropylcellulose) (HPC)) was 3 of 3 and the survivor count (T/C endpoint: mean survival time, dose: 400.0 mg/kg/injection, schedule: Q01DX001 (ip), vehicle: Klucel (hydroxypropylcellulose) (HPC)) was 1 of 3.
`O=C(C[N+]12CCC(O)C1C(CO)CC2)c1ccc(Br)cc1` (stereo not given): under setting [1], the survivor count is given as 0 of 6.
Take `COC(=O)c1nc[nH]c1N=[N+]=[N-]`: the survivor count runs as follows: (T/C endpoint: mean survival time, dose: 200.0 mg/kg/injection, schedule: Q01DX001 (ip), vehicle: other) 1 of 4; (T/C endpoint: mean survival time, dose: 400.0 mg/kg/injection, schedule: Q01DX001 (ip), vehicle: other) 0 of 4.
With `CC(C)CN(C)/N=N/c1nc[nH]c1C(N)=O`, the T/C (T/C endpoint: mean survival time, dose: 12.5 mg/kg/injection, schedule: Q01DX Z (ip), vehicle: carboxymethylcellulose (CMC)) was 127 % of control; the T/C (T/C endpoint: mean survival time, dose: 25.0 mg/kg/injection, schedule: Q01DX Z (ip), vehicle: carboxymethylcellulose (CMC)) was 144 % of control; the T/C (T/C endpoint: mean survival time, dose: 28.0 mg/kg/injection, schedule: Q01DX015 (ip), vehicle: carboxymethylcellulose (CMC)) was 126 % of control; the T/C (T/C endpoint: mean survival time, dose: 48.0 mg/kg/injection, schedule: Q01DX015 (ip), vehicle: carboxymethylcellulose (CMC)) was 137 % of control; the T/C (T/C endpoint: mean survival time, dose: 50.0 mg/kg/injection, schedule: Q01DX009 (ip), vehicle: carboxymethylcellulose (CMC)) is 128 % of control; the T/C (T/C endpoint: mean survival time, dose: 50.0 mg/kg/injection, schedule: Q01DX Z (ip), vehicle: carboxymethylcellulose (CMC)) was 142 % of control. Moreover, the T/C (T/C endpoint: mean survival time, dose: 60.0 mg/kg/injection, schedule: Q01DX009 (ip), vehicle: carboxymethylcellulose (CMC)) was 141 % of control; the T/C (T/C endpoint: mean survival time, dose: 75.0 mg/kg/injection, schedule: Q01DX009 (ip), vehicle: carboxymethylcellulose (CMC)) is 137 % of control; the T/C (T/C endpoint: mean survival time, dose: 112.0 mg/kg/injection, schedule: Q01DX009 (ip), vehicle: carboxymethylcellulose (CMC)) is 141 % of control; the T/C (T/C endpoint: mean survival time, dose: 400.0 mg/kg/injection, schedule: Q01DX001 (ip), vehicle: carboxymethylcellulose (CMC)) was 132 % of control [5 of 6 alive]; the T/C (T/C endpoint: median survival time, dose: 12.5 mg/kg/injection, schedule: Q01DX011 (ip), vehicle: steroid suspending solution) is 137 % of control; the T/C (T/C endpoint: median survival time, dose: 25.0 mg/kg/injection, schedule: Q01DX011 (ip), vehicle: steroid suspending solution) was 143 % of control. The T/C (T/C endpoint: median survival time, dose: 50.0 mg/kg/injection, schedule: Q01DX009 (ip), vehicle: steroid suspending solution) is 144 % of control. Besides, the survivor count by setting is: (T/C endpoint: mean survival time, dose: 75.0 mg/kg/injection, schedule: Q01DX Z (ip), vehicle: carboxymethylcellulose (CMC)) 6 of 6; (T/C endpoint: mean survival time, dose: 112.0 mg/kg/injection, schedule: Q01DX Z (ip), vehicle: carboxymethylcellulose (CMC)) 6 of 6; (T/C endpoint: mean survival time, dose: 240.0 mg/kg/injection, schedule: Q01DX009 (ip), vehicle: carboxymethylcellulose (CMC)) 5 of 6.
Turning to `CCCCN(CCCC)CCCNc1c2c(nc3ccccc13)CCCC2`, the survivor count runs as follows: under setting [6], 0 of 4; under setting [7], 0 of 4; under setting [8], 0 of 4.
Consider `CCCCC(=O)N/N=C/c1ccccc1[N+](=O)[O-]`, for which the survivor count (T/C endpoint: mean survival time, dose: 100.0 mg/kg/injection, schedule: Q01DX001 (ip), vehicle: carboxymethylcellulose (CMC)) was 4 of 4.
Turning to `C=Cc1ccc(Oc2ccccc2)cc1`, under setting [2], the survivor count was 4 of 6.
Consider `O=C(Cc1ccccc1)NC(CSSCC(NC(=O)Cc1ccccc1)C(=O)O)C(=O)O` (stereo not given), for which, where the note is “T/C endpoint: mean survival time, dose: 200.0 mg/kg/injection, schedule: Q01DX009 (ip), vehicle: saline”, the T/C is 125 % of control.
